For series [1], the target named is ZNF306 (UniProt Q9BRR0). As to the kind of experiment: EMSA. The settings on record: 10 ug nuclear extract, 0.6 ug poly dI/dC; supershifted by anti-ZNF306; only core site printed; protein in an extract.
The target in series [2] is ZNF306 (UniProt Q9BRR0). As to the kind of experiment: binding assay. The settings on record: ChIP with anti-ZNF306, primers flanking the motif; protein in cells; protein details: expression plasmid or cDNA in colon cancer cells.

Protein sequences, listed by entry. Tags and fused reporters are not part of them. Lines headed by an entry give the natural chain unless they say otherwise; changes in a name come on top.
UniProt Q9BRR0: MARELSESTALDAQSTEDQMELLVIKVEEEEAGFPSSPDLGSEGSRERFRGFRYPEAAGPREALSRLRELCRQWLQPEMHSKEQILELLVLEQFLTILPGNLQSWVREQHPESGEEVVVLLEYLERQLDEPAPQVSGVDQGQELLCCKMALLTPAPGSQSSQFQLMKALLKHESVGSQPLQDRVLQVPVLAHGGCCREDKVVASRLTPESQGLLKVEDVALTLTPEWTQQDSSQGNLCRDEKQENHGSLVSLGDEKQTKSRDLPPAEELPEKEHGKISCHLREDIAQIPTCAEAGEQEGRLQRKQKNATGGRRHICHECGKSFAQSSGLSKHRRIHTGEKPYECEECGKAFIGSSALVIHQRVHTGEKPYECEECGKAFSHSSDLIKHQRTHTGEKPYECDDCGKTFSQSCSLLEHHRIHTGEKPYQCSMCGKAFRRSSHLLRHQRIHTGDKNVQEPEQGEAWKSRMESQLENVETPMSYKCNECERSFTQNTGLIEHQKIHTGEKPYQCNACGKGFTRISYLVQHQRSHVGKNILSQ

Results from cells or extracts need not show a direct contact. For some assays here: The exact form of at least one protein or probe is not confirmed.

Take “TGAGGGG (double strand) [integrin beta4 intron 1 wt probe]”: the binding result with ZNF306 [1] and in the series with ZNF306 [2] was “binds” throughout.

The values are drawn from patent publication US20070298445, “Cancer Therapeutic” (published 2007).
